Measurements reported in patent publication EP0425212B1 (dated 1991).
HELM strings list residues between dots; [ac] is acetyl, [am] amide, other brackets name non-standard units.

Columns and labels:
[1] = general procedure: Boc solid-phase peptide synthesis; BHA; EDC/HOBt (solution phase steps); conditions: whole synthesis, scale 1 mmol
[2] = general procedure: Boc solid-phase peptide synthesis; 4-methylbenzhydrylamine resin; EDC/HOBt (solution phase steps); conditions: whole synthesis, scale 1.0 mmol
[3] = general procedure: Boc solid-phase peptide synthesis; benzhydrylamine (BHA) / 4-methylbenzhydrylamine (MBHA) resin; hydroxymethyl resin; SASRIN for homodetic peptides; EDC/HOBt (solution phase steps); conditions: cyclisation step
[4] = general procedure: Boc solid-phase peptide synthesis; MeBHA; EDC/HOBt (solution phase steps); conditions: whole synthesis

Substance: PEPTIDE1{G.[MeR].G.D.S.E.[am]}$PEPTIDE1,PEPTIDE1,1:R1-6:R3$$$V2.0
- crude mass [1]: 680 mg
- crude yield [1]: 100%

Substance: PEPTIDE1{[Mba].R.G.D.C.[am]}$PEPTIDE1,PEPTIDE1,1:R3-5:R3$$$V2.0
- crude mass [2]: 320 mg

Substance: PEPTIDE1{[MeR].G.D.F.R.G.D.F}$PEPTIDE1,PEPTIDE1,8:R2-1:R1$$$V2.0
- cyclisation yield [3]: 95%

Substance: PEPTIDE1{[ac].C.R.G.D.S.[MeR].G.D.S.C.[am]}$PEPTIDE1,PEPTIDE1,2:R3-11:R3$$$V2.0
- crude mass ([4]; scale 1.0 mmol): 409 mg

Substance: PEPTIDE1{[ac].C.[MeR].G.D.S.R.G.D.S.C.[am]}$PEPTIDE1,PEPTIDE1,2:R3-11:R3$$$V2.0
- isolated mass ([4]; scale 1.0 mmol): 800 mg

Substance: PEPTIDE1{[ac].C.[MeR].G.D.[PcsRR].[am]}$PEPTIDE1,PEPTIDE1,2:R3-6:R3$$$V2.0
- isolated mass ([4]; scale 0.5 mmol): 92 mg

Substance: PEPTIDE1{[ac].C.[MeR].G.D.[PcsRS].[am]}$PEPTIDE1,PEPTIDE1,2:R3-6:R3$$$V2.0
- isolated mass ([4]; scale 0.5 mmol): 80 mg
